Source: paper doi:10.1101/134007
Positions count from the first letter of the chain named. Numbers in names are those of the source. These are yes or no findings as the source states them, for the method shown. For some of these results: Binding seen in cells or lysates may run through a third protein. Some results given as binding are weak or reduced against the parent protein; the word gives no strength. Sequences can lack the tags named with a protein.

Experiments:
[1] = target: T1, Human Myc-DHHC6 (WT) (human) (UniProt Q9H6R6); experiment: co-IP
T1 sequence: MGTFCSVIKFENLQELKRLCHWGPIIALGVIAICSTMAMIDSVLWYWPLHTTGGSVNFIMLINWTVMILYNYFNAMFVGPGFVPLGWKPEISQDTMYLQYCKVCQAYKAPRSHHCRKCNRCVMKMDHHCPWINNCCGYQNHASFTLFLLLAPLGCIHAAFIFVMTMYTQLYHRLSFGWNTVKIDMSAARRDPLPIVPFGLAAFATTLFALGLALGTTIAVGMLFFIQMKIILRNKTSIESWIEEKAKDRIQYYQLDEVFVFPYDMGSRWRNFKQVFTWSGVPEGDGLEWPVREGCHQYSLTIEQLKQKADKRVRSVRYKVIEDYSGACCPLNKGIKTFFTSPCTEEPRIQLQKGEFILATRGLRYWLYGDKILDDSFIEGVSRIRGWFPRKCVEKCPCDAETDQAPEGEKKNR

[2] = target: T1, Human Myc-DHHC6 (WT) (human); experiment: native gel or EMSA
[3] = target: Myc-DHHC6-C328A-C329A-C343A (AAA) (human) (UniProt Q9H6R6); experiment: native gel or EMSA
Human Myc-DHHC7 (human) = Human Myc-DHHC7 (human) (UniProt Q9NXF8); experiment: native gel or EMSA
[4] = target: T2, Human Myc-DHHC20 (human), Q5W0Z9; experiment: native gel or EMSA; conditions: remark: other sources report otherwise
T2 chain: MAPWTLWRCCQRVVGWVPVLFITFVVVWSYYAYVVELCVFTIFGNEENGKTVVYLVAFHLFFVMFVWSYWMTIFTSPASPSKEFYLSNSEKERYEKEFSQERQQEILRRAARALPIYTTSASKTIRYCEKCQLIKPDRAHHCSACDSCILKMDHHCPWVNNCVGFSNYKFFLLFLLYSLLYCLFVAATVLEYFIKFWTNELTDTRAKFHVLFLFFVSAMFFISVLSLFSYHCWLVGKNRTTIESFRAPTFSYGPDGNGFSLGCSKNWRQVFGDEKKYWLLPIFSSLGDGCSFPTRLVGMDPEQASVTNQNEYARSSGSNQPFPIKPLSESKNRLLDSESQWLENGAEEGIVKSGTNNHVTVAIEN

B1: Human Myc-DHHC6 (WT) (enzyme, UniProt Q9H6R6-1 1-413)
chain: T1 sequence
binding [1]: binds | binding [2]: binds

B2: GFP-tagged DHHC6 ΔDHHC (Del-D126-H127-H128-C129) (enzyme, UniProt Q9H6R6-1)
chain: MGTFCSVIKFENLQELKRLCHWGPIIALGVIAICSTMAMIDSVLWYWPLHTTGGSVNFIMLINWTVMILYNYFNAMFVGPGFVPLGWKPEISQDTMYLQYCKVCQAYKAPRSHHCRKCNRCVMKMPWINNCCGYQNHASFTLFLLLAPLGCIHAAFIFVMTMYTQLYHRLSFGWNTVKIDMSAARRDPLPIVPFGLAAFATTLFALGLALGTTIAVGMLFFIQMKIILRNKTSIESWIEEKAKDRIQYYQLDEVFVFPYDMGSRWRNFKQVFTWSGVPEGDGLEWPVREGCHQYSLTIEQLKQKADKRVRSVRYKVIEDYSGACCPLNKGIKTFFTSPCTEEPRIQLQKGEFILATRGLRYWLYGDKILDDSFIEGVSRIRGWFPRKCVEKCPCDAETDQAPEGEKKNR
binding [1]: binds

B3: Myc-DHHC6-C328A-C329A-C343A (AAA) (enzyme, UniProt Q9H6R6-1 1-413)
chain: T1 sequence with C328A, C329A, C343A
binding [3]: binds

B4: GFP-tagged DHHC6-C328A-C329A-C343A (AAA) (enzyme, UniProt Q9H6R6-1 1-413)
chain: T1 sequence with C328A, C329A, C343A
binding [1]: no binding

B5: Human Myc-DHHC7 (enzyme, UniProt Q9NXF8 1-308)
chain: MQPSGHRLRDVEHHPLLAENDNYDSSSSSSSEADVADRVWFIRDGCGMICAVMTWLLVAYADFVVTFVMLLPSKDFWYSVVNGVIFNCLAVLALSSHLRTMLTDPGAVPKGNATKEYMESLQLKPGEVIYKCPKCCCIKPERAHHCSICKRCIRKMDHHCPWVNNCVGEKNQRFFVLFTMYIALSSVHALILCGFQFISCVRGQWTECSDFSPPITVILLIFLCLEGLLFFTFTAVMFGTQIHSICNDETEIERLKSEKPTWERRLRWEGMKSVFGGPPSLLWMNPFVGFRFRRLPTRPRKGGPEFSV
binding (Human Myc-DHHC7 (human)): no binding

B6: Human Myc-DHHC20, Q5W0Z9 1-365 (enzyme)
chain: T2 chain
binding [4]: no binding
